These results are taken from the supplement of paper PMC7877785.

± gives the uncertainty stated by the source. The uncertainty is large for many entries.

The series is described as follows: self-splicing fitness, log relative to wild type (ln ratio); higher = more splicing; Tetrahymena group I intron in knt gene, E. coli kanamycin selection, DiMSum; sequences stand for … in CUCUCU…GGAGGGAAAAGUUAUCAGGCAUGCACCUGGUAGCUAGUCUUUAAACCAAUAGAUUGCAUCGGUUUAAAAGGCAAGACCGUCAAAUUGCGGGAAAGGGGUCAACAGCCGUUCAGUACCAAGUCUCAGGGGAAACUUUGAGAUGGCCUUGCAAAGGGUAUGGUAAUAAGCUGACGGACAUGGUCCUAACCACGCAGCCAAGUCCUAAGUCAACAGAUCUUCUGUUGAUAUGGAUGCAGUUCACAGACUAAAUGUCGGUCGGGGAAGAUGUAUUCUUCUCAUAAGAUAUAGUCGGACCUCUCCUUAAUGGGAGCUAGCGGAUGAAGUGAUGCAACACUGGAGCCGCUGGGAACUAAUUUGUAUGCGAAAGUAUAUUGAUUAGUUUUGGAGUACUCGUGGUCG
The method, boiled down:
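DiMSum derived fitness as the error-weighted combination of fold changes across replicates, kanamycin versus no kanamycin, normalised to wild type. E. coli BL21(DE3) held the library, which randomised all eight P1ex-region intron nucleotides within the knt kanamycin-resistance gene on pET-22b(+). Six replicate transformations grew overnight at 37°C or 30°C on LB agar with or without 25 μg/mL kanamycin, also containing 100 μg/mL carbenicillin, 50 μM IPTG and 0.2% rhamnose, and pooled colonies were amplicon-sequenced on an Illumina HiSeq 2500.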

For CAUAAGCAAUAUUACGGGCC, the “self-splicing fitness (ln)” value (30 °C) is -3.94 ± 0.6. As to GAUAAGCAAUAUUACGGUCC, for the setting “30 °C”, the “self-splicing fitness (ln)” value is -3.22 ± 0.54.

Take ACUUAGCAAUAUUACGAAGC: the “self-splicing fitness (ln)” value (30 °C) was -3.14 ± 0.61. On the same count and under the same terms, the result for GCGCAGCAAUAUUACGCACG reads -3.8 ± 0.59; that for CAAGAGCAAUAUUACGUCCC, -4.2 ± 0.52.

As for UCCGAGCAAUAUUACGAUAA, the “self-splicing fitness (ln)” value by setting is: (30 °C) -2 ± 0.22; (37 °C) -2.41 ± 0.32. Take AGAAAGCAAUAUUACGCCCC: the “self-splicing fitness (ln)” value (37 °C) is -0.661 ± 0.59. As for GUCCAGCAAUAUUACGCCAA, the “self-splicing fitness (ln)” value is -2.63 ± 0.18 (30 °C) and -2.72 ± 0.16 (37 °C). Regarding CUUUAGCAAUAUUACGGUGA, the “self-splicing fitness (ln)” value (30 °C) was -4.42 ± 0.51. As to CUUUAGCAAUAUUACGCAAU, the “self-splicing fitness (ln)” value by setting is: (30 °C) -4.17 ± 1.1; (37 °C) -2.86 ± 0.55.

For the sequence GAGGAGCAAUAUUACGUUCC, the “self-splicing fitness (ln)” value (30 °C) was -4.08 ± 0.73. On the same count and under the same terms, to AGUGAGCAAUAUUACGCCAG belongs -3.87 ± 1. Same read-out and setting: to GGAGAGCAAUAUUACGAAAA belongs -2.23 ± 0.62. Take UGUGAGCAAUAUUACGGAGU: the “self-splicing fitness (ln)” value reads like this: (30 °C) -2.92 ± 0.56; (37 °C) -2.9 ± 0.53.

Consider GUGUAGCAAUAUUACGGUCC, for which the “self-splicing fitness (ln)” value was -1.7 ± 0.23 (30 °C) and -0.716 ± 0.25 (37 °C). Consider CCAUAGCAAUAUUACGGGCC, for which, for the setting “30 °C”, the “self-splicing fitness (ln)” value was -4.73 ± 0.58. Consider CAGUAGCAAUAUUACGUCGC, for which the “self-splicing fitness (ln)” value (30 °C) is -3.06 ± 0.75. In the case of AUGGAGCAAUAUUACGGUUA, the “self-splicing fitness (ln)” value (30 °C) was -2.84 ± 0.54. With CGGGAGCAAUAUUACGAGAU, where the note is “30 °C”, the “self-splicing fitness (ln)” value was -4.42 ± 1. Regarding CAAAAGCAAUAUUACGAGCC, the “self-splicing fitness (ln)” value (37 °C) was -1.87 ± 0.56. Take CUAAAGCAAUAUUACGGCUG: the “self-splicing fitness (ln)” value is 0.0357 ± 0.069 (30 °C) and -0.0492 ± 0.089 (37 °C).

Consider UGGGAGCAAUAUUACGGGCU, for which the “self-splicing fitness (ln)” value (37 °C) was -2.32 ± 0.64. With UACCAGCAAUAUUACGAUAC, the “self-splicing fitness (ln)” value (30 °C) is -5.03 ± 1. For CCGAAGCAAUAUUACGGGGA, the “self-splicing fitness (ln)” value was -3.16 ± 0.19 (30 °C) and -2.96 ± 0.19 (37 °C). CUAGAGCAAUAUUACGCGCC: the “self-splicing fitness (ln)” value (37 °C) is -1.69 ± 1.2. Still for that read-out and setting: the result for GGGGAGCAAUAUUACGCCAG reads -3.16 ± 1.

For the sequence GGACAGCAAUAUUACGCCGC, under “30 °C”, the “self-splicing fitness (ln)” value was -3.55 ± 0.61. UGCGAGCAAUAUUACGGAGA: the “self-splicing fitness (ln)” value is -3.53 ± 0.73 (30 °C) and -3.5 ± 0.6 (37 °C).

As to CAGUAGCAAUAUUACGAUCC, the “self-splicing fitness (ln)” value by setting is: (30 °C) -3.52 ± 0.75; (37 °C) -2.66 ± 0.53.

Turning to GUGUAGCAAUAUUACGAAUU, the “self-splicing fitness (ln)” value reads like this: (30 °C) -2.33 ± 0.064; (37 °C) -1.85 ± 0.097. On the same counts, the results for UCUGAGCAAUAUUACGGAUC are -4.21 ± 0.59 and -2.98 ± 1.1. On the same counts, the results for GGAGAGCAAUAUUACGAGAA are -2.67 ± 0.56 and -2.4 ± 0.63. With CAAGAGCAAUAUUACGAGUA, where the note is “30 °C”, the “self-splicing fitness (ln)” value was -4.27 ± 1.

For CCCGAGCAAUAUUACGCCCC, for the setting “30 °C”, the “self-splicing fitness (ln)” value was -3.01 ± 0.76. For CGACAGCAAUAUUACGCCGC, the “self-splicing fitness (ln)” value (30 °C) was -4.26 ± 1.

Regarding GAUGAGCAAUAUUACGCCAC, the “self-splicing fitness (ln)” value is -3.54 ± 0.52 (30 °C) and -2.56 ± 0.76 (37 °C). In the case of UGGGAGCAAUAUUACGGGUU, the “self-splicing fitness (ln)” value (30 °C) is -3.97 ± 1. With AUAUAGCAAUAUUACGACUU, the “self-splicing fitness (ln)” value is, setting by setting: (30 °C) 0.217 ± 0.073; (37 °C) -0.272 ± 0.075. Regarding AUUUAGCAAUAUUACGGGUC, where the note is “30 °C”, the “self-splicing fitness (ln)” value is -3.57 ± 1.

As for AAAGAGCAAUAUUACGGUUC, the “self-splicing fitness (ln)” value (30 °C) is -3.25 ± 0.52.

With GGUUAGCAAUAUUACGCAAC, the “self-splicing fitness (ln)” value (30 °C) is -3 ± 0.75. For the sequence UAGCAGCAAUAUUACGUGCG, the “self-splicing fitness (ln)” value by setting is: (30 °C) -0.801 ± 0.076; (37 °C) 0.26 ± 0.081. On to GCGGAGCAAUAUUACGAUCC, for which, under “30 °C”, the “self-splicing fitness (ln)” value was -2.57 ± 0.63. Take GCUAAGCAAUAUUACGCCAG: the “self-splicing fitness (ln)” value is -2.93 ± 1.1 (30 °C) and -1.22 ± 0.75 (37 °C). With GGGGAGCAAUAUUACGUAUG, where the note is “30 °C”, the “self-splicing fitness (ln)” value is -4.77 ± 0.59. Consider UCUUAGCAAUAUUACGUAUC, for which the “self-splicing fitness (ln)” value by setting is: (30 °C) -4.29 ± 1.1; (37 °C) -1.6 ± 0.62. GCAGAGCAAUAUUACGCAUG: the “self-splicing fitness (ln)” value (30 °C) was -3.52 ± 1.1. For CUACAGCAAUAUUACGCCUU, the “self-splicing fitness (ln)” value (30 °C) is -2.27 ± 0.2 and the “self-splicing fitness (ln)” value (37 °C) is -1.4 ± 0.31.
